Assay results reported in PMC6018666.

Amino acid sequences for entries named in this document (tags omitted). Residues count along the entry.
UniProt P09651, 1-196: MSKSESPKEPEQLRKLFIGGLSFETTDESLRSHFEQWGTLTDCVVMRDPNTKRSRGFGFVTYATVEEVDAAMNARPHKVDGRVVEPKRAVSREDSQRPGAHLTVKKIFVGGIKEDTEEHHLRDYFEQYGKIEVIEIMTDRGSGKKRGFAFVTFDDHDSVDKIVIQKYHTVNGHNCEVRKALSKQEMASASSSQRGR
UniProt P09651, 1-196 E66C: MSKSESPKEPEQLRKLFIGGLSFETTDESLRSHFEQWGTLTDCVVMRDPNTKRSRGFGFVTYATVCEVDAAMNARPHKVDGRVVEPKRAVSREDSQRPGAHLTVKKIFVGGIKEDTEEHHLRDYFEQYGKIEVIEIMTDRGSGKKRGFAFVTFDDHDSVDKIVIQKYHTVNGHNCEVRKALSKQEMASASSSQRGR

What was measured:
UP1 (hnRNP A1 RRM1-RRM2) = UP1 (hnRNP A1 RRM1-RRM2) (UniProt P09651); experiment: SAXS; details: recombinant protein; residues 1-196; protein details: His tag removed by TEV
UP1 E66C spin-labeled = UP1 E66C spin-labeled (UniProt P09651); experiment: NMR PRE; details: recombinant protein; residues 1-196; protein details: spin label at C66, His tag removed by TEV

Sequence: AGUAGAUUAGCA [12-mer]
- binding result (UP1 (hnRNP A1 RRM1-RRM2)): binds
- binding result (UP1 E66C spin-labeled): binds

For at least one entry, the source does not settle the construct or the ends of the probe. At least one verdict rests on a figure or table, not on a statement of the authors.
